Values from PubChem BioAssay AID493246 (Drosophila RNAi Screening Center, 2011)

Test: 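Genes fly cells need to grow and stay alive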 (primary screen)
Cells: Drosophila Kc and S2R+ cells
Reagent: long dsRNA against Drosophila genes
Measured: 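Cell number per well after knock-down, printed as raw plate values; calls were based on per-plate z-scores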
Direction: Kc cell number and S2R+ cell number: higher = more cells remaining
Active means: 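Active when the per-plate z-score of cell number is 3 or more in the direction of fewer cells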
The deposit covers about 21,000 reagents; below is an unselected part of those that have a named target and a result. In the full data, 429 (2%) got an active call. 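Values are raw and not normalised between plates; calls rest on per-plate z-scores that were not deposited.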 Names joined by + are all predicted targets of the reagent. The record does not give: the amount of reagent, the time to read-out.

CG9436 [DRSC05005] — Kc cell number, rep 1 = 1.49e6; Kc cell number, rep 2 = 1.66e6; S2R+ cell number, rep 1 = 1.07e6; S2R+ cell number, rep 2 = 1.09e6; Outcome = inactive
CG7556 [DRSC20052] — Kc cell number, rep 1 = 2.02e6; Kc cell number, rep 2 = 2.09e6; S2R+ cell number, rep 1 = 1.12e6; S2R+ cell number, rep 2 = 1.24e6; Outcome = inactive
RpS27 [DRSC14244] — Kc cell number, rep 1 = 1.19e6; Kc cell number, rep 2 = 1.14e6; S2R+ cell number, rep 1 = 7.82e5; S2R+ cell number, rep 2 = 9.04e5; Outcome = inactive
Mst87F [DRSC16747] — Kc cell number, rep 1 = 1.24e6; Kc cell number, rep 2 = 1.28e6; S2R+ cell number, rep 1 = 1.17e6; S2R+ cell number, rep 2 = 1.30e6; Outcome = inactive
Syx1A [DRSC15359] — Kc cell number, rep 1 = 1.38e6; Kc cell number, rep 2 = 1.46e6; S2R+ cell number, rep 1 = 8.82e5; S2R+ cell number, rep 2 = 1.07e6; Outcome = inactive
CG12914 [DRSC06229] — Kc cell number, rep 1 = 1.54e6; Kc cell number, rep 2 = 1.52e6; S2R+ cell number, rep 1 = 1.27e6; S2R+ cell number, rep 2 = 1.29e6; Outcome = inactive
rictor [DRSC20071] — Kc cell number, rep 1 = 1.57e6; Kc cell number, rep 2 = 1.63e6; S2R+ cell number, rep 1 = 1.10e6; S2R+ cell number, rep 2 = 1.25e6; Outcome = inactive
CG33791 + CG18170 [DRSC08523] — Kc cell number, rep 1 = 1.39e6; Kc cell number, rep 2 = 1.44e6; S2R+ cell number, rep 1 = 1.08e6; S2R+ cell number, rep 2 = 1.23e6; Outcome = inactive
CG33791 + CG18170 [DRSC08601] — Kc cell number, rep 1 = 1.40e6; Kc cell number, rep 2 = 1.40e6; S2R+ cell number, rep 1 = 1.03e6; S2R+ cell number, rep 2 = 1.18e6; Outcome = inactive
CG5021 [DRSC10469] — Kc cell number, rep 1 = 1.37e6; Kc cell number, rep 2 = 1.40e6; S2R+ cell number, rep 1 = 1.15e6; S2R+ cell number, rep 2 = 1.21e6; Outcome = inactive
galectin [DRSC00305] — Kc cell number, rep 1 = 1.83e6; Kc cell number, rep 2 = 1.87e6; S2R+ cell number, rep 1 = 1.15e6; S2R+ cell number, rep 2 = 1.24e6; Outcome = inactive
CG17075 [DRSC00483] — Kc cell number, rep 1 = 1.26e6; Kc cell number, rep 2 = 1.34e6; S2R+ cell number, rep 1 = 9.53e5; S2R+ cell number, rep 2 = 9.49e5; Outcome = inactive

A portion from the list above:
CG12914 [DRSC06229] — Kc cell number, rep 1 = 1.54e6; Kc cell number, rep 2 = 1.52e6; S2R+ cell number, rep 1 = 1.27e6; S2R+ cell number, rep 2 = 1.29e6; Outcome = inactive
rictor [DRSC20071] — Kc cell number, rep 1 = 1.57e6; Kc cell number, rep 2 = 1.63e6; S2R+ cell number, rep 1 = 1.10e6; S2R+ cell number, rep 2 = 1.25e6; Outcome = inactive
